The supplement of paper PMC10849652
This is one part of the list.

The chains behind the UniProt entries cited, without tags or fusion partners. Where a name states a change or a piece, a line headed by the entry shows the natural chain unless it says otherwise.
UniProt P17542, whole entry, looked up: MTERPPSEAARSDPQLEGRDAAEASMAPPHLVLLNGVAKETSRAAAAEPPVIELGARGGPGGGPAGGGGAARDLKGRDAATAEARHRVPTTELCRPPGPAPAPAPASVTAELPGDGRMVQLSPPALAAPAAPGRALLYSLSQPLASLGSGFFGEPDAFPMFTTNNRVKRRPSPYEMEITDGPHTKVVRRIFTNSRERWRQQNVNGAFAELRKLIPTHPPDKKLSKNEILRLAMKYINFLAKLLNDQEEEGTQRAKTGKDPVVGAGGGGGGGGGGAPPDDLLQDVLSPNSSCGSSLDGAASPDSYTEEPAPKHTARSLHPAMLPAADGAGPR
UniProt P37802: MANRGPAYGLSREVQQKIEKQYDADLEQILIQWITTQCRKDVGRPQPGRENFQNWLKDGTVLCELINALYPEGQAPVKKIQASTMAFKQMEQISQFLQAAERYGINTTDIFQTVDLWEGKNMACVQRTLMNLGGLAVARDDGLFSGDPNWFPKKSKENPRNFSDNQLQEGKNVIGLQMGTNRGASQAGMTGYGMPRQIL
UniProt Q9NU19: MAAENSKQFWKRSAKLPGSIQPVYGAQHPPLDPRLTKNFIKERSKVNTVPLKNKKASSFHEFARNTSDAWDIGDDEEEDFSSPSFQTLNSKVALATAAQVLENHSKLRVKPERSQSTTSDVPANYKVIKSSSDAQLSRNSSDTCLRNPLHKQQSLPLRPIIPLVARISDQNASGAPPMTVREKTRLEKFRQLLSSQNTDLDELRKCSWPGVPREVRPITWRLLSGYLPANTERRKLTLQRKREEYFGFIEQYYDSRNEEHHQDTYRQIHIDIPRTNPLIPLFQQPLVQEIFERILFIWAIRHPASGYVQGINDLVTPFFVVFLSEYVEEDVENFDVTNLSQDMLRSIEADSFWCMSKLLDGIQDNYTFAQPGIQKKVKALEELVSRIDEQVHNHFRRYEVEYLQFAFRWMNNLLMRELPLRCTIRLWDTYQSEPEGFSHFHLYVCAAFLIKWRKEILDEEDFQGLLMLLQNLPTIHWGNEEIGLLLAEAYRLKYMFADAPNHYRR
UniProt Q9NXF1: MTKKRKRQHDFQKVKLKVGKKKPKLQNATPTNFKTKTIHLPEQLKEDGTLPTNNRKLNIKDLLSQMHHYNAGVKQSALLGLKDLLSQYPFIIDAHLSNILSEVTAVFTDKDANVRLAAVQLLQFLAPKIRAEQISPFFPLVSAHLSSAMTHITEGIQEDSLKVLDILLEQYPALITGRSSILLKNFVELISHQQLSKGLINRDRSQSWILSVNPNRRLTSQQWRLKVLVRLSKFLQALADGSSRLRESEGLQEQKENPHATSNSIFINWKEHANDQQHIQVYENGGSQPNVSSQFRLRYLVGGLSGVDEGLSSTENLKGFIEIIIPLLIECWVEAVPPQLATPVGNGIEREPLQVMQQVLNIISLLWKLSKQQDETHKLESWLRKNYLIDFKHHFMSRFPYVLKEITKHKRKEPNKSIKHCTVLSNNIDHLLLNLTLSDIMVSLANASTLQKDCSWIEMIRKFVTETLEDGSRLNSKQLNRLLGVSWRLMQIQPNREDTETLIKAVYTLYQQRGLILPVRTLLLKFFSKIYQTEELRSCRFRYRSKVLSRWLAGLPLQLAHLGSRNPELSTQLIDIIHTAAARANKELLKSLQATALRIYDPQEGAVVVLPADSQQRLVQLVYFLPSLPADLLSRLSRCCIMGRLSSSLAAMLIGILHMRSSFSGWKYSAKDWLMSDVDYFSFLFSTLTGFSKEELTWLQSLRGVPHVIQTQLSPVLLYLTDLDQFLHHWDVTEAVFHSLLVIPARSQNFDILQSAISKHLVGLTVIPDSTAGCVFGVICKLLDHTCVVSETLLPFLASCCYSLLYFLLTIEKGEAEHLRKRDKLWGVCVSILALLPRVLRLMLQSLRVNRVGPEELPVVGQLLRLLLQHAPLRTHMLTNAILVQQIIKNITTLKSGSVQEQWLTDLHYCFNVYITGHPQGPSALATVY
UniProt P17987, whole entry, looked up: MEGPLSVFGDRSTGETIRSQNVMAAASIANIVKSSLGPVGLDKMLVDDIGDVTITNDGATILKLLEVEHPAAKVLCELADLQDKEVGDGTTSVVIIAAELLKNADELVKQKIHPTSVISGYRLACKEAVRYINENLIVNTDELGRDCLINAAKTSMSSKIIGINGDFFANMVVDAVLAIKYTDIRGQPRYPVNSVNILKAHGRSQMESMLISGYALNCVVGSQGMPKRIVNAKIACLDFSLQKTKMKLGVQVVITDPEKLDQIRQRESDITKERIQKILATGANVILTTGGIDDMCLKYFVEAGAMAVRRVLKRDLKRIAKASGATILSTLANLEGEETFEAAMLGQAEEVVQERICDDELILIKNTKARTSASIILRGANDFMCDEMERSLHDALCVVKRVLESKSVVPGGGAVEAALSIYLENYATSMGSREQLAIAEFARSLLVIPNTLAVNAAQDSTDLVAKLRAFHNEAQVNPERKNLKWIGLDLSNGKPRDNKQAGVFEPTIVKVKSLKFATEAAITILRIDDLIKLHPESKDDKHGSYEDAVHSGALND
UniProt Q15813: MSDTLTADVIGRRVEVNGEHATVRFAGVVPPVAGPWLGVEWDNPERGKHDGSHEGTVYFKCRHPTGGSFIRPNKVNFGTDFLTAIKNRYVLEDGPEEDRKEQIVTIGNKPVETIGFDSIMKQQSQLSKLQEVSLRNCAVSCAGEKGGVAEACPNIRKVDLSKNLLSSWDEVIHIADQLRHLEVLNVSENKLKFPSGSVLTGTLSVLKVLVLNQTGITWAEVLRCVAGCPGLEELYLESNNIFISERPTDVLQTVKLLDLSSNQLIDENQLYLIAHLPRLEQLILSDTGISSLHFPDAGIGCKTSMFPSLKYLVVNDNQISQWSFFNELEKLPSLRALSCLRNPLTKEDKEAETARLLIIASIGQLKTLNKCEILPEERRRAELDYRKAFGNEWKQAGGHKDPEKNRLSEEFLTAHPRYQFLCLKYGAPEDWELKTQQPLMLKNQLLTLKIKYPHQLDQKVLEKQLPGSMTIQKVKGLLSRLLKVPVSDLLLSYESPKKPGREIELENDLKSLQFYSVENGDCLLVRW
UniProt Q9P0N9: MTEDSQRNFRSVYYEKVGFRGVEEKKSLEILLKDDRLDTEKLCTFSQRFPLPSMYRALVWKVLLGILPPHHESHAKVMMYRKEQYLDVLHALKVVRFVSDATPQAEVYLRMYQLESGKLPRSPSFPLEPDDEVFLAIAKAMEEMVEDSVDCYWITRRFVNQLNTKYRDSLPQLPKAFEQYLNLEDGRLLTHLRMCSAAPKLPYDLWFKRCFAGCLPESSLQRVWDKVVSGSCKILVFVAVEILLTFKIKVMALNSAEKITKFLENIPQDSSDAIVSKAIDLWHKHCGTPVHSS
UniProt Q14186: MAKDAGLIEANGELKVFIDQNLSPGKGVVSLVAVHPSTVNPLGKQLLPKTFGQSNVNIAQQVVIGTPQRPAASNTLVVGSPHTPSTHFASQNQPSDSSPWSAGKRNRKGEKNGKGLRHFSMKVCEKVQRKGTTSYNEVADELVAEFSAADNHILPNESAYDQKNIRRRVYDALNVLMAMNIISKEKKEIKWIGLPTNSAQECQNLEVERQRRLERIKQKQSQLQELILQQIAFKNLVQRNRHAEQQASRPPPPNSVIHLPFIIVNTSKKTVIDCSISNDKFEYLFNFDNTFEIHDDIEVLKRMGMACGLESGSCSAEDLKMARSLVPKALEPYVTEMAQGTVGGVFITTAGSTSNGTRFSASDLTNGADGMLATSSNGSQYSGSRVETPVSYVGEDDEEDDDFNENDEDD
UniProt O60343: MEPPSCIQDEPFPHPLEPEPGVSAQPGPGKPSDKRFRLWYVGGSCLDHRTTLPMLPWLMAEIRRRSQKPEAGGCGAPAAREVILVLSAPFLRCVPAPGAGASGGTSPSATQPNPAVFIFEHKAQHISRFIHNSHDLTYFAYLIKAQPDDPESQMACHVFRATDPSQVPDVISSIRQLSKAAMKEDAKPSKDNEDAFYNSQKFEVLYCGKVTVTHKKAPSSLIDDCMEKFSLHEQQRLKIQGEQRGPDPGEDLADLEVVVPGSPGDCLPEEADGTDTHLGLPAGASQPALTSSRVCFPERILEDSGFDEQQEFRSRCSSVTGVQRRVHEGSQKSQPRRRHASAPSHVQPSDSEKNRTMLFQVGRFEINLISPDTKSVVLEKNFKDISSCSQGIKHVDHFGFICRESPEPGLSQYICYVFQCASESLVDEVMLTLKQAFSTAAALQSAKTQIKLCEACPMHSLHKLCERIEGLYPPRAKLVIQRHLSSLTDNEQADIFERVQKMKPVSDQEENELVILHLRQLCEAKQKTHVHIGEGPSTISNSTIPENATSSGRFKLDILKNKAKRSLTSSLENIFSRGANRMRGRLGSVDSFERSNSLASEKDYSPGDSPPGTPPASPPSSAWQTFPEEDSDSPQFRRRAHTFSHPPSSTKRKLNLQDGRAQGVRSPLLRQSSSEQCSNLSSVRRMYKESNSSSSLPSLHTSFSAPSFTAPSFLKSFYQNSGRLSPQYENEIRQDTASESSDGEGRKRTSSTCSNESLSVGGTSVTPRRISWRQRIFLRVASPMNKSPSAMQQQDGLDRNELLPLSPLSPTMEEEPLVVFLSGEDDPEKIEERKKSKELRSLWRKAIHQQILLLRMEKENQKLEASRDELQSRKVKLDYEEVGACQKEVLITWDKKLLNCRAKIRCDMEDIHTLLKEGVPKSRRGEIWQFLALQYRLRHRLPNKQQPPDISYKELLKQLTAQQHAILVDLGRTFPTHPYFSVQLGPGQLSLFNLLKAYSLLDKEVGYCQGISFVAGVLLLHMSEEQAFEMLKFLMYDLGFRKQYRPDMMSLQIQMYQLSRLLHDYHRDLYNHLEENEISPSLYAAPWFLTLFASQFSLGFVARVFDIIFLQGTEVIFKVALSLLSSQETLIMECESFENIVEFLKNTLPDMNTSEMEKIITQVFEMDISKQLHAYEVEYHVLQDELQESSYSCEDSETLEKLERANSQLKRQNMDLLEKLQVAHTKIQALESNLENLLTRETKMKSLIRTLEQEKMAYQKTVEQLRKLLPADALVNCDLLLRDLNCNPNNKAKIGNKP
UniProt Q9UBB9: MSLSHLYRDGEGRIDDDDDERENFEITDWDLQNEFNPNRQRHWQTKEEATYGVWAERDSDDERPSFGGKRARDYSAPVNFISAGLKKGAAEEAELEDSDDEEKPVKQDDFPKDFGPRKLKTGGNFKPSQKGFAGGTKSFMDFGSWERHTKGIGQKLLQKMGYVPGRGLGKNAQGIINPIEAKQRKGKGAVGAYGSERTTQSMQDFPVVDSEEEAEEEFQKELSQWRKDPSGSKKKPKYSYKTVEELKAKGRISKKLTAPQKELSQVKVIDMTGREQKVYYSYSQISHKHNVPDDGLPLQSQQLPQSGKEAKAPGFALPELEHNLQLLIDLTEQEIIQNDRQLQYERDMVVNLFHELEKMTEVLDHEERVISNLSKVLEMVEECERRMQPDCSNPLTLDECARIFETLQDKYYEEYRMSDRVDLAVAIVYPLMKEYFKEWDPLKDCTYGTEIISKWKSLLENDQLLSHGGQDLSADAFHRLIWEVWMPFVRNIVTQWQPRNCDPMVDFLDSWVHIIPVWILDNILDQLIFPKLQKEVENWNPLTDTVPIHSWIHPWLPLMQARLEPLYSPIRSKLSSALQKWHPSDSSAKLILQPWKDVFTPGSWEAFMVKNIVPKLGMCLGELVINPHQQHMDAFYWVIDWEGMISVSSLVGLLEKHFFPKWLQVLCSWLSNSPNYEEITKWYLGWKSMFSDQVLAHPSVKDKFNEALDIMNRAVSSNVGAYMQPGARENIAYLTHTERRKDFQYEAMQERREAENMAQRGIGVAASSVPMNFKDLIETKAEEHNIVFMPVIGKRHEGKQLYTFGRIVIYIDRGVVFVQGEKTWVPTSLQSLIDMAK
UniProt P19532: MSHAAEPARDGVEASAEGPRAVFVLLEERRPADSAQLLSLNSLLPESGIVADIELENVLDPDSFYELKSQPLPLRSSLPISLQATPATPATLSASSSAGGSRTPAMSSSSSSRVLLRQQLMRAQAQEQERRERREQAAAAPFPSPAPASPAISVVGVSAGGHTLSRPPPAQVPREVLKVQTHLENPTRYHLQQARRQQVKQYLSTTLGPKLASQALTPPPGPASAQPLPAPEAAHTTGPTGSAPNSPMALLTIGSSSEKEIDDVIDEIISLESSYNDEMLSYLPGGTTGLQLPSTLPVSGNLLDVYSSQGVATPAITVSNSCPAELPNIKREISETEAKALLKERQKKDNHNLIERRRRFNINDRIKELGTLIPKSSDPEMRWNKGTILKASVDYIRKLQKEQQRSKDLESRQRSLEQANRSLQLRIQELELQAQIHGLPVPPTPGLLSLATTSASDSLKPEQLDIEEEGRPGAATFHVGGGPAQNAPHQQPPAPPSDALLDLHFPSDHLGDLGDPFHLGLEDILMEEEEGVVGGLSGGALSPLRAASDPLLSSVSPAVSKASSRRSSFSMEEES

How the values were obtained:
Assay in all cases: log2 fold change, soluble protein after heating vs DMSO (PISA); higher = thermal stabilisation; K562 lysate, 10 uM; active = over 0.2 and 3.5 SD of the protein, either way, in both replicates (recomputed)
erlotinib = compound: C#Cc1cccc(Nc2ncnc3cc(OCCOC)c(OCCOC)cc23)c1 [erlotinib]
How it was run: (§1)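 Dounce homogenisation of K562 pellets in PBS pH 7.4 with 1 mM MgCl2 produced a crude extract, used at 1 mg/mL protein. Exposure to 10 μM compound lasted 30 min, and aliquots were then heated for 3 min across 48°C-58°C, pooled and brought to 0.5% NP-40 at 4°C. The supernatant after 21,000xg for 90 min was quantified by TMTpro 16plex LC-MS/MS with channel sums equalised. Duplicate values are given as log-two fold change in thermal stability relative to solvent controls.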

[1] = compound: C/C(=N\NC(=O)C1=CC(=CC=C1)S(=O)(=O)N2CCOCC2)/C3=C(C=CC(=C3)Cl)O
How it was run: as §1

[2] = compound: C1=CC(=CC=C1C2=NC3=C(N2)C=C(C=C3)C(=O)N)OC4=CC=C(C=C4)Cl
How it was run: as §1

[3] = compound: C1=CC2=C(C=CC(=C2)/C=C\3/C(=O)NC(=NCC4=CC=CS4)S3)N=C1
How it was run: as §1

[4] = compound: C1=CC2=NC=CN=C2C=C1/C=C/3\C(=O)NC(=O)S3
How it was run: as §1

[5] = compound: C1=CC=C(C=C1)C2=NC(=C(N2)C3=CC=NC=C3)C4=CC(=C(C=C4)Cl)O
How it was run: as §1

[6] = compound: C1=CC=C2C(=C1)C3=NNC4=CC=CC(=C43)C2=O
How it was run: as §1

[7] = compound: C1CCN(C1)C(=O)NC2=CC=CC(=C2)NC3=NC=C(C(=N3)NCCC4=CN=CN4)Br
How it was run: as §1

[8] = compound: C1CN(CCC1(CC2=CC=C(C=C2)Cl)N)C3=NC=NC4=C3C=CN4
How it was run: as §1

IRAK-1-4 Inhibitor I = compound: C1COCCN1CCN2C3=CC=CC=C3N=C2NC(=O)C4=CC(=CC=C4)[N+](=O)[O-] [IRAK-1-4 Inhibitor I]
How it was run: as §1

ibrutinib = compound: C=CC(=O)N1CCC[C@@H](n2nc(-c3ccc(Oc4ccccc4)cc3)c3c(N)ncnc32)C1 [ibrutinib]
How it was run: as §1

[9] = compound: CC(=O)c1cnc2ccc(-c3cc(Cl)c(O)c(Cl)c3)nc2c1N[C@H]1CC[C@H](CN(C)C)CC1
How it was run: as §1

ralimetinib = compound: CC(C)(C)Cn1c(N)nc2ccc(-c3[nH]c(C(C)(C)C)nc3-c3ccc(F)cc3)nc21 [ralimetinib]
How it was run: as §1

[10] = compound: CC(C)(O)CC(=O)NCCn1ccc2ncnc(Nc3ccc(Oc4cccc(C(F)(F)F)c4)c(Cl)c3)c21
How it was run: as §1

[11] = compound: CC(C)C1=C2N=C(C=C(N2N=C1)NCC3=CC=CC=C3)NCCCCCCN
How it was run: as §1

[12] = compound: CC1=C(C(CC(=O)N1)C2=CC=C(C=C2)C(F)(F)F)C(=O)NC3=C(C=C4C(=C3)C=NN4)F
How it was run: as §1

[13] = compound: CC1=C(C2=C(C=C1)C(=O)C3=CC=CC=C3N2CCCN)C
How it was run: as §1

[14] = compound: CC1=C(C=C(C=C1)NC(=O)C2=CC(=CC=C2)C(C)(C)C#N)NC3=CC4=C(C=C3)N=CN(C4=O)C
How it was run: as §1

[15] = compound: CC1=C(C=C(C=C1)NC(=O)C2=CC(=CC=C2)N(C)C)NC(=O)C3=CC=C(C=C3)O
How it was run: as §1

[16] = compound: CC1=CC=C(C=C1)SC2=C3C=C(SC3=CN=C2)C(=O)N
How it was run: as §1

Measured: log2 fold change

TAL1 (UniProt P17542)
inactive: erlotinib 0.035 | [1] 0.033 | [2] 0.02 | [3] -0.023 | [4] -0.013 | [5] -0.032 | [6] -0.022 | [7] 0.031 | [8] 0.026 | IRAK-1-4 Inhibitor I -0.017 | ibrutinib 0.005 | [9] 0.001 | ralimetinib 0.011 | [10] -0.049 | [11] -0.013 | [12] 0.034 | [13] -0.015 | [14] -0.042 | [15] 0.048 | [16] 0.017

TBC1D24 (UniProt Q9ULP9)
inactive: erlotinib -0.039 | [1] -0.063 | [2] 0.013 | [3] -0.005 | [4] 0.025 | [5] 0.013 | [6] -0.055 | [7] 0.001 | [8] 0.002 | IRAK-1-4 Inhibitor I 0.019 | ibrutinib -0.044 | [9] -0.003 | ralimetinib 0.02 | [10] 0.021 | [11] 0.002 | [12] -0.014 | [13] 0.03 | [14] 0.008 | [15] 0.081 | [16] 0.026

TAGLN2 isoform 2 (UniProt P37802)
inactive: erlotinib -0.008 | [1] 0.038 | [2] 0.049 | [3] -0.016 | [4] 0.001 | [5] 0 | [6] 0.019 | [7] -0.002 | [8] 0.021 | IRAK-1-4 Inhibitor I 0.002 | ibrutinib 0.048 | [9] 0 | ralimetinib -0.011 | [10] -0.012 | [11] -0.003 | [12] -0.027 | [13] 0 | [14] 0.009 | [15] 0.003 | [16] -0.025

TBC1D22B (UniProt Q9NU19)
inactive: erlotinib -0.023 | [1] -0.048 | [2] 0.037 | [3] 0.016 | [4] -0.018 | [5] -0.028 | [6] -0.14 | [7] -0.045 | [8] 0.054 | IRAK-1-4 Inhibitor I 0.013 | ibrutinib -0.006 | [9] 0.096 | ralimetinib -0.014 | [10] -0.009 | [11] -0.067 | [12] 0.025 | [13] -0.062 | [14] 0.015 | [15] 0.047 | [16] -0.021

Random excerpt: 2 records from the list
TBC1D24 (UniProt Q9ULP9)
inactive: erlotinib -0.039 | [1] -0.063 | [2] 0.013 | [3] -0.005 | [4] 0.025 | [5] 0.013 | [6] -0.055 | [7] 0.001 | [8] 0.002 | IRAK-1-4 Inhibitor I 0.019 | ibrutinib -0.044 | [9] -0.003 | ralimetinib 0.02 | [10] 0.021 | [11] 0.002 | [12] -0.014 | [13] 0.03 | [14] 0.008 | [15] 0.081 | [16] 0.026

TBC1D22B (UniProt Q9NU19)
inactive: erlotinib -0.023 | [1] -0.048 | [2] 0.037 | [3] 0.016 | [4] -0.018 | [5] -0.028 | [6] -0.14 | [7] -0.045 | [8] 0.054 | IRAK-1-4 Inhibitor I 0.013 | ibrutinib -0.006 | [9] 0.096 | ralimetinib -0.014 | [10] -0.009 | [11] -0.067 | [12] 0.025 | [13] -0.062 | [14] 0.015 | [15] 0.047 | [16] -0.021

The list goes on:

TEX10 (UniProt Q9NXF1)
inactive: erlotinib 0.027 | [1] -0.022 | [2] 0.17 | [3] -0.004 | [4] 0.053 | [5] 0.019 | [6] -0.025 | [7] 0.005 | [8] -0.039 | IRAK-1-4 Inhibitor I 0.072 | ibrutinib 0.072 | [9] -0.012 | ralimetinib 0 | [10] -0.151 | [11] -0.03 | [12] 0.057 | [13] -0.19 | [14] -0.057 | [15] 0.018 | [16] 0.013

TCP1 (UniProt P17987)
inactive: erlotinib 0.007 | [1] 0.004 | [2] 0.011 | [3] -0.007 | [4] -0.009 | [5] 0.005 | [6] 0.018 | [7] 0.002 | [8] -0.01 | IRAK-1-4 Inhibitor I 0.009 | ibrutinib -0.024 | [9] -0.014 | ralimetinib -0.01 | [10] 0.003 | [11] -0.006 | [12] -0.03 | [13] -0.004 | [14] 0.004 | [15] -0.022 | [16] 0.01

TBCE (UniProt Q15813)
inactive: erlotinib 0.02 | [1] 0.049 | [2] -0.016 | [3] 0.004 | [4] 0.014 | [5] 0.001 | [6] -0.07 | [7] -0.027 | [8] 0.038 | IRAK-1-4 Inhibitor I -0.002 | ibrutinib -0.027 | [9] 0.004 | ralimetinib 0.037 | [10] 0.01 | [11] -0.004 | [12] 0.003 | [13] 0.004 | [14] -0.007 | [15] 0.025 | [16] -0.016

TBC1D7 (UniProt Q9P0N9)
inactive: erlotinib 0.014 | [1] -0.273 | [2] 0.003 | [3] -0.006 | [4] -0.003 | [5] -0.125 | [6] 0.099 | [7] 0.041 | [8] -0.029 | IRAK-1-4 Inhibitor I 0.05 | ibrutinib -0.022 | [9] 0.047 | ralimetinib 0.01 | [10] -0.135 | [11] -0.038 | [12] -0.038 | [13] -0.047 | [14] 0.065 | [15] 0.068 | [16] 0.067

TEPSIN, A0A1B0GV70
inactive: erlotinib 0.025 | [1] 0.206 | [2] -0.094 | [3] 0.122 | [4] -0.017 | [5] 0.117 | [6] 0.076 | [7] -0.099 | [8] 0.087 | IRAK-1-4 Inhibitor I 0.029 | ibrutinib -0.045 | [9] 0.096 | ralimetinib 0.05 | [10] -0.086 | [11] -0.113 | [12] -0.033 | [13] -0.048 | [14] 0.08 | [15] 0.037 | [16] 0.051

TFDP1 (UniProt Q14186)
inactive: erlotinib 0.039 | [1] 0.021 | [2] -0.12 | [3] 0.07 | [4] -0.086 | [5] 0.071 | [6] -0.059 | [7] -0.087 | [8] 0.03 | IRAK-1-4 Inhibitor I 0.026 | ibrutinib 0.005 | [9] -0.014 | ralimetinib -0.008 | [10] -0.044 | [11] 0.115 | [12] 0.015 | [13] -0.034 | [14] 0.019 | [15] -0.094 | [16] 0.006

TERF2 (UniProt Q15554)
inactive: erlotinib -0.002 | [1] -0.019 | [2] -0.008 | [3] 0.039 | [4] 0.006 | [5] -0.016 | [6] -0.018 | [7] 0.042 | [8] -0.073 | IRAK-1-4 Inhibitor I 0.023 | ibrutinib -0.068 | [9] 0.032 | ralimetinib -0.036 | [10] -0.016 | [11] -0.008 | [12] -0.029 | [13] 0 | [14] -0.033 | [15] -0.004 | [16] -0.035

TBC1D4 (UniProt O60343)
inactive: erlotinib 0.025 | [1] 0.014 | [2] 0.019 | [3] 0.022 | [4] -0.017 | [5] -0.013 | [6] -0.024 | [7] -0.002 | [8] -0.02 | IRAK-1-4 Inhibitor I -0.017 | ibrutinib 0.03 | [9] 0.014 | ralimetinib 0.021 | [10] 0.005 | [11] -0.036 | [12] 0.009 | [13] 0 | [14] -0.051 | [15] -0.006 | [16] 0.008

TELO2 (UniProt Q9Y4R8)
inactive: erlotinib 0.023 | [1] 0.006 | [2] -0.035 | [3] 0.025 | [4] 0.048 | [5] 0 | [6] 0.011 | [7] -0.031 | [8] 0.002 | IRAK-1-4 Inhibitor I 0.009 | ibrutinib -0.023 | [9] 0 | ralimetinib 0.019 | [10] -0.052 | [11] 0.002 | [12] 0.029 | [13] -0.015 | [14] 0.006 | [15] 0.014 | [16] 0.017

TFIP11 (UniProt Q9UBB9)
inactive: erlotinib -0.026 | [1] -0.099 | [2] -0.082 | [3] -0.025 | [4] -0.027 | [5] 0.023 | [6] -0.036 | [7] -0.008 | [8] 0.074 | IRAK-1-4 Inhibitor I -0.016 | ibrutinib 0.059 | [9] 0.001 | ralimetinib 0.023 | [10] 0.008 | [11] -0.022 | [12] 0 | [13] -0.034 | [14] 0.016 | [15] 0.031 | [16] -0.003

TFE3 (UniProt P19532)
inactive: erlotinib 0.033 | [1] 0.026 | [2] -0.052 | [3] -0.009 | [4] -0.002 | [5] 0.005 | [6] 0.038 | [7] 0.022 | [8] 0.016 | IRAK-1-4 Inhibitor I 0.008 | ibrutinib 0.066 | [9] -0.074 | ralimetinib 0.07 | [10] -0.022 | [11] 0.047 | [12] 0.013 | [13] 0.064 | [14] -0.111 | [15] -0.009 | [16] -0.047

TAOK3 (UniProt Q9H2K8)
inactive: erlotinib -0.035 | [1] -0.022 | [2] 0 | [3] 0.028 | [4] 0.067 | [5] 0.01 | [6] 0.051 | [7] 0.092 | [8] 0.022 | IRAK-1-4 Inhibitor I 0.001 | ibrutinib 0.018 | [9] 0.094 | ralimetinib 0.014 | [10] -0.025 | [11] -0.002 | [12] -0.038 | [13] -0.016 | [14] -0.024 | [15] -0.025 | [16] 0.016
